{"source": "PubChem BioAssay AID504774 | Drosophila RNAi Screening Center – 2011", "assay": "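Fly genes whose loss alters survival after alkylation damage to DNA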 (primary screen)", "cells": "Drosophila Kc167 cells", "reagents": "long dsRNA against Drosophila genes, about 0.25 µg dsRNA per well", "timing": "about 6 days: 3 days knock-down, then 3 days with or without MMS", "conditions": "methyl methanesulphonate 0.004% (w/v) for 3 days after knock-down", "detection": "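ATP-dependent luminescence as a measure of live cells in MMS-exposed wells, quantile normalised within each plate, with replicate values also given as a mean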", "reading the numbers": "mean viability with MMS: higher = more surviving cells after MMS", "note": "The screen tested about 23,000 reagents; shown is a random part of those with a known target gene and a result. 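Values are quantile-normalised luminescence on an arbitrary scale; higher means more cells surviving MMS.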 Further read-outs or replicates are left out here."}
{"gene": "CG8617 (GeneID 36594)", "amplicon": "DRSC07223", "mean viability with MMS": 3.42e6}
{"gene": "Ugt316A1 (GeneID 40079)", "amplicon": "DRSC10376", "mean viability with MMS": 3.52e6}
{"gene": "CG34302 (GeneID 5740537)", "amplicon": "DRSC12751", "mean viability with MMS": 3.48e6}
{"gene": "CG7889 (GeneID 32916)", "amplicon": "DRSC20066", "mean viability with MMS": 3.75e6}
{"gene": "CG42843 (retired record) (GeneID 10178904)", "amplicon": "DRSC01118", "mean viability with MMS": 3.66e6}
{"gene": "CG42843 (retired record) (GeneID 10178904)", "amplicon": "DRSC02231", "mean viability with MMS": 3.64e6}
{"gene": "CG42843 (retired record) (GeneID 10178904)", "amplicon": "DRSC02233", "mean viability with MMS": 3.60e6}
{"gene": "ktub (GeneID 37400)", "amplicon": "DRSC04551", "mean viability with MMS": 3.67e6}
{"gene": "CG42697 (GeneID 10178822)", "amplicon": "DRSC05740", "mean viability with MMS": 3.51e6}
{"gene": "CngB (GeneID 37479)", "amplicon": "DRSC04297", "mean viability with MMS": 3.32e6}
{"gene": "CG17597 (GeneID 35140)", "amplicon": "DRSC02630", "mean viability with MMS": 3.51e6}
{"gene": "CG13681 (retired record) (GeneID 38892)", "amplicon": "DRSC08906", "mean viability with MMS": 3.50e6}
{"gene": "CG13681 (retired record) (GeneID 38892)", "amplicon": "DRSC08907", "mean viability with MMS": 3.65e6}
{"gene": "CG13681 (retired record) (GeneID 38892)", "amplicon": "DRSC10038", "mean viability with MMS": 3.45e6}
{"gene": "CG13681 (retired record) (GeneID 38892)", "amplicon": "DRSC10039", "mean viability with MMS": 3.53e6}
{"gene": "CG13681 (retired record) (GeneID 38892)", "amplicon": "DRSC10927", "mean viability with MMS": 3.43e6}
{"gene": "CG13681 (retired record) (GeneID 38892)", "amplicon": "DRSC10929", "mean viability with MMS": 3.52e6}
{"gene": "CG12236 (GeneID 31523)", "amplicon": "DRSC17830", "mean viability with MMS": 2.62e6}
{"gene": "CG12236 (GeneID 31523)", "amplicon": "DRSC17831", "mean viability with MMS": 3.50e6}
{"gene": "Gclm (GeneID 248194)", "amplicon": "DRSC15677", "mean viability with MMS": 3.14e6}
{"gene": "CG13716 (GeneID 38567)", "amplicon": "DRSC08325", "mean viability with MMS": 3.70e6}
{"gene": "CG13716 (GeneID 38567)", "amplicon": "DRSC22815", "mean viability with MMS": 3.49e6}
{"gene": "Pde1c (GeneID 34594)", "amplicon": "DRSC02421", "mean viability with MMS": 3.30e6}
{"gene": "Pde1c (GeneID 34594)", "amplicon": "DRSC02422", "mean viability with MMS": 3.30e6}
{"gene": "Pde1c (GeneID 34594)", "amplicon": "DRSC02423", "mean viability with MMS": 3.28e6}
{"gene": "Pde1c (GeneID 34594)", "amplicon": "DRSC02424", "mean viability with MMS": 3.12e6}
{"gene": "Pde1c (GeneID 34594)", "amplicon": "DRSC02425", "mean viability with MMS": 3.42e6}
{"gene": "Pde1c (GeneID 34594)", "amplicon": "DRSC02426", "mean viability with MMS": 3.38e6}
{"gene": "CG15042 (GeneID 32844)", "amplicon": "DRSC19618", "mean viability with MMS": 3.36e6}
{"gene": "otk (GeneID 36283)", "amplicon": "DRSC07658", "mean viability with MMS": 3.59e6}
{"gene": "verm (GeneID 40149)", "amplicon": "DRSC11038", "mean viability with MMS": 3.49e6}
{"gene": "CtsK1 (GeneID 39547)", "amplicon": "DRSC08742", "mean viability with MMS": 3.37e6}
{"gene": "Lap1 (GeneID 36670)", "amplicon": "DRSC07454", "mean viability with MMS": 3.38e6}
{"gene": "TTLL12 (GeneID 35732)", "amplicon": "DRSC06555", "mean viability with MMS": 3.65e6}
{"gene": "CG14744 (GeneID 35858)", "amplicon": "DRSC06480", "mean viability with MMS": 3.47e6}
